The list does not hold the whole screen: it is rich in T/C values a quarter to a half above the control, in often repeated tests (any T/C) and in doses without a T/C. Further doses and runs are listed elsewhere. T/C gives the treated animals as a percentage of the vehicle group. Some doses have a count of surviving animals in place of a T/C: the source files T/C as zero there, which appears to mark a toxic dose or a test without result, not a measured value. Some survivor counts are full or nearly so, which does not show that the dose was tolerated: survival well below the control is almost never listed, so the zero probably covers shortened survival too. Survivors were counted at the toxicity check, usually on the fifth day, unless a day is given; later deaths do not show. Schedules are NCI's codes, taken here to give the interval after Q, in days (D) or hours (H), and the number of doses after X. For survival time, the PubChem record calls one and a half times the control and up active, and a quarter to a half above the control has no call in these data; cut-offs in other NCI protocols can differ.
Tested on: P388 leukemia ip, CD2F1 mice, survival T/C
Test: NCI In Vivo Anticancer Drug Screen. Data for tumor model P388 Leukemia (intraperitoneal) in CD2F1 (CDF1) mice
Details: T/C endpoint: median survival time, higher T/C = longer survival
[1] = dose: 8.0 mg/kg/injection, schedule: Q01DX009 (ip), vehicle: saline with Tween-80

COc1cccc2c1C(=O)c1c(O)c3c(c(O)c1C2=O)C[C@@](O)(C(C)=O)C[C@@H]3OC1CC(NCc2ccccc2)C(O)C(C)O1 (stereo partly specified)
T/C (dose: 0.39 mg/kg/injection, schedule: Q01DX009 (ip), vehicle: water): 137 % of control
T/C (dose: 0.78 mg/kg/injection, schedule: Q01DX009 (ip), vehicle: water): 137 % of control
T/C (dose: 4.7 mg/kg/injection, schedule: Q04DX003 (ip), vehicle: water): 129 % of control
survivor count (dose: 12.5 mg/kg/injection, schedule: Q01DX009 (ip), vehicle: water): 6 of 6
survivor count (dose: 30.0 mg/kg/injection, schedule: Q04DX003 (ip), vehicle: water): 7 of 8
survivor count (dose: 50.0 mg/kg/injection, schedule: Q04DX003 (ip), vehicle: water): 8 of 8

O=C(CCl)NC(Cc1ccsc1)C(=O)O (stereo unspecified)
survivor count (dose: 200.0 mg/kg/injection, schedule: Q01DX009 (ip), vehicle: saline): 3 of 6

COc1cccc2c1C(=O)c1c(O)c3c(c(O)c1C2=O)C[C@@](O)(C(=O)COC(=O)Cc1ccccc1)C[C@@H]3OC1CC(N)C(O)C(C)O1 (stereo partly specified)
T/C (dose: 1.0 mg/kg/injection, schedule: Q01DX009 (ip), vehicle: saline with Tween-80): 130 % of control
T/C [1]: 130 % of control
survivor count [1]: 10 of 10
survivor count (dose: 16.0 mg/kg/injection, schedule: Q01DX009 (ip), vehicle: saline with Tween-80): 6 of 10

Source: PubChem BioAssay AID330 (DTP/NCI, 2004)
